Experimental data from paper PMC12188314.
No constants are given. Whether binding was seen depends on the method and setting. For some assays here: Binding seen in cells or lysates may run through a third protein. Some entries that bind do so weakly or less than the wild type. Where a sequence is shown, tags or fusion partners need not be part of it.

What was measured:
[1] = target: T1, T7-tagged RBD27-WT (mouse) (UniProt Q99N50); experiment: co-IP; lysates of COS-7 cells with T7–RBD27 (WT or mutant) or FLAG–Rab27A incubated 1 h at 4°C with anti-T7 tag antibody-conjugated agarose beads; lysis buffer 50 mM HEPES-KOH pH 7.2, 250 mM NaCl, 1 mM MgCl2, 1% Triton X-100, 0.5 mM GTPγS; immunoblotting
T1 sequence: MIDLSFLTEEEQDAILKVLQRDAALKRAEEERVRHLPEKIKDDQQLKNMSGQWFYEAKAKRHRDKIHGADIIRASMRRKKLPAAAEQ

[2] = target: T2, T7–GST–RBD27 (mouse) (UniProt Q99N50); experiment: pull-down; anti-T7 tag antibody-conjugated agarose beads coupled with T7–GST–RBD27 incubated 1 h at 4°C with 10 μg purified GST–Rab27A in 50 mM HEPES-KOH pH 7.2, 150 mM NaCl, 1 mM MgCl2, 0.5 mM GTPγS, 0.1% Triton X-100; CBB staining; both purified
T2 sequence: T1 sequence

B1: FLAG-tagged Rab27A (protein, UniProt Q9ERI2 1-221)
chain: MSDGDYDYLIKFLALGDSGVGKTSVLYQYTDGKFNSKFITTVGIDFREKRVVYRANGPDGAVGRGQRIHLQLWDTAGQERFRSLTTAFFRDAMGFLLLFDLTNEQSFLNVRNWISQLQMHAYCENPDIVLCGNKSDLEDQRAVKEEEARELAEKYGIPYFETSAANGTNISHAIEMLLDLIMKRMERCVDKSWIPEGVVRSNGHTSADQLSEEKEKGLCGC
binding [1]: binds

B2: GST–Rab27A (protein, UniProt Q9ERI2 1-221)
chain: B1 chain
binding [2]: binds
